# From the supplement of paper PMC8728848
# Some of the results follow.
# B1: Epf (Streptococcus pyogenes) (protein)
# chain: GDHGPEFNGVMVVKAAEAEELPDDLMNFKGTWEVSADGSSGRFFSKGATDSYVFHLIPAKDVKKPGWREHNEVKDSYIKIDKQSIAARYKTSTTAPYSVAFKVNTKSLIKDHDYKITFEQGQIASGITVDYRIGSAFNKTTDDSFKISDESKYASNVKIEGEEQGFKQREQGDKTISFRTLKEGPMSLVLLSKVEKKPQGDLDVEFKNLKIIDVTNPSQLDKGVAYVGNKNVQLTLKSDDGRTNFEGDEISLFNSRGELLQTVTVTKDQQNPISITLSEDQAKSLKNKEKLKVSIKQKQSKKTSKDFFFEVGIDPKVEAKQKEKLLELDKVKKQIEDSINGDAWLPEKPVDLQGDHGLSAWSHPQFEK
# Tests used:
# Assay in all cases: glycan array binding signal (z-score within array); higher = stronger binding
# Conditions in all cases: glycan notation: IUPAC condensed, linker removed
# [1] = target: Gal(b1-3)[GlcNAc(b1-6)]GalNAc
# In short: (§1)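 Arrays were curated from the Consortium for Functional Glycomics database, 3228 in total, and kept only where the protein sequence was available. Binding is expressed as a within-array Z-score. This score was averaged across arrays of the same protein sequence at different concentrations or buffers and across linkers, and negative values can be read as non-binding.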
# [2] = target: Gal(b1-3)[Neu5Ac(a2-6)]GalNAc
# In short: as §1
# [3] = target: Gal(b1-3)[Neu5Ac(a2-6)]GlcNAc(b1-4)Gal(b1-4)Glc
# In short: as §1
# [4] = target: Gal(b1-3)[Neu5Ac(b2-6)]GalNAc
# In short: as §1
# Gal(b1-4)Gal = target: Gal(b1-4)Gal
# In short: as §1
# [5] = target: Gal(b1-4)GalNAc(a1-3)[Fuc(a1-2)]Gal(b1-4)GlcNAc
# In short: as §1
# [6] = target: Gal(b1-4)GalNAc(b1-3)[Fuc(a1-2)]Gal(b1-4)GlcNAc
# In short: as §1
# Gal(b1-4)Glc = target: Gal(b1-4)Glc
# In short: as §1
# Gal(b1-4)Glc6S = target: Gal(b1-4)Glc6S
# In short: as §1
# Gal(b1-4)GlcNAc = target: Gal(b1-4)GlcNAc
# In short: as §1
# [7] = target: Gal(b1-4)GlcNAc(a1-6)Gal(b1-4)GlcNAc
# In short: as §1
# Gal(b1-4)GlcNAc(b1-2)Man = target: Gal(b1-4)GlcNAc(b1-2)Man
# In short: as §1
# [8] = target: Gal(b1-4)GlcNAc(b1-2)Man(a1-3)Man(b1-4)GlcNAc(b1-4)GlcNAc
# In short: as §1
# [9] = target: Gal(b1-4)GlcNAc(b1-2)Man(a1-3)[Gal(b1-4)GlcNAc(b1-2)Man(a1-6)]Man(b1-4)GlcNAc(b1-4)GlcNAc
# In short: as §1
# [10] = target: Gal(b1-4)GlcNAc(b1-2)Man(a1-3)[Gal(b1-4)GlcNAc(b1-2)Man(a1-6)]Man(b1-4)GlcNAc(b1-4)[Fuc(a1-6)]GlcNAc
# In short: as §1
# [11] = target: Gal(b1-4)GlcNAc(b1-2)Man(a1-3)[Gal(b1-4)GlcNAc(b1-2)Man(a1-6)][Gal(b1-4)GlcNAc(b1-4)]Man(b1-4)GlcNAc(b1-4)[Fuc(a1-6)]GlcNAc
# In short: as §1
# [12] = target: Gal(b1-4)GlcNAc(b1-2)Man(a1-3)[Gal(b1-4)GlcNAc(b1-2)Man(a1-6)][GlcNAc(b1-4)]Man(b1-4)GlcNAc(b1-4)[Fuc(a1-6)]GlcNAc
# In short: as §1
# [13] = target: Gal(b1-4)GlcNAc(b1-2)Man(a1-3)[GlcNAc(b1-2)Man(a1-6)]Man(b1-4)GlcNAc(b1-4)GlcNAc
# In short: as §1
# [14] = target: Gal(b1-4)GlcNAc(b1-2)Man(a1-3)[GlcNAc(b1-4)][Gal(b1-4)GlcNAc(b1-2)Man(a1-6)]Man(b1-4)GlcNAc(b1-4)GlcNAc
# In short: as §1
# [15] = target: Gal(b1-4)GlcNAc(b1-2)Man(a1-3)[Man(a1-6)]Man(b1-4)GlcNAc(b1-4)GlcNAc
# In short: as §1
# [16] = target: Gal(b1-4)GlcNAc(b1-2)Man(a1-6)Man(b1-4)GlcNAc(b1-4)GlcNAc
# In short: as §1
# [17] = target: Gal(b1-4)GlcNAc(b1-2)Man(a1-6)[GlcNAc(b1-2)Man(a1-3)]Man(b1-4)GlcNAc(b1-4)GlcNAc
# In short: as §1
# [18] = target: Gal(b1-4)GlcNAc(b1-2)Man(a1-6)[Man(a1-3)]Man(b1-4)GlcNAc(b1-4)GlcNAc
# In short: as §1
# [19] = target: Gal(b1-4)GlcNAc(b1-2)[Gal(b1-4)GlcNAc(b1-4)]Man(a1-3)[Gal(b1-4)GlcNAc(b1-2)Man(a1-6)]Man(b1-4)GlcNAc(b1-4)GlcNAc
# In short: as §1
# [20] = target: Gal(b1-4)GlcNAc(b1-2)[Gal(b1-4)GlcNAc(b1-4)]Man(a1-3)[Gal(b1-4)GlcNAc(b1-2)[Gal(b1-4)GlcNAc(b1-6)]Man(a1-6)]Man(b1-4)GlcNAc(b1-4)GlcNAc
# In short: as §1
# [21] = target: Gal(b1-4)GlcNAc(b1-2)[Gal(b1-4)GlcNAc(b1-4)]Man(a1-3)[GlcNAc(b1-4)][Gal(b1-4)GlcNAc(b1-2)Man(a1-6)]Man(b1-4)GlcNAc(b1-4)GlcNAc
# In short: as §1
# [22] = target: Gal(b1-4)GlcNAc(b1-2)[Gal(b1-4)GlcNAc(b1-4)]Man(a1-3)[GlcNAc(b1-4)][Gal(b1-4)GlcNAc(b1-2)[Gal(b1-4)GlcNAc(b1-6)]Man(a1-6)]Man(b1-4)GlcNAc(b1-4)GlcNAc
# In short: as §1
# [23] = target: Gal(b1-4)GlcNAc(b1-2)[Gal(b1-4)GlcNAc(b1-6)]Man(a1-6)[Gal(b1-4)GlcNAc(b1-2)Man(a1-3)]Man(b1-4)GlcNAc(b1-4)GlcNAc
# In short: as §1
# [24] = target: Gal(b1-4)GlcNAc(b1-2)[Gal(b1-4)GlcNAc(b1-6)]Man(a1-6)[Gal(b1-4)GlcNAc(b1-2)Man(a1-3)]Man(b1-4)GlcNAc(b1-4)[Fuc(a1-6)]GlcNAc
# In short: as §1
# [25] = target: Gal(b1-4)GlcNAc(b1-2)[Gal(b1-4)GlcNAc(b1-6)]Man(a1-6)[GlcNAc(b1-4)][Gal(b1-4)GlcNAc(b1-2)Man(a1-3)]Man(b1-4)GlcNAc(b1-4)GlcNAc
# In short: as §1
# [26] = target: Gal(b1-4)GlcNAc(b1-2)[Gal(b1-4)GlcNAc(b1-6)]Man(a1-6)[GlcNAc(b1-4)][Gal(b1-4)GlcNAc(b1-2)[Gal(b1-4)GlcNAc(b1-4)]Man(a1-3)]Man(b1-4)GlcNAc(b1-4)[Fuc(a1-6)]GlcNAc
# In short: as §1
# [27] = target: Gal(b1-4)GlcNAc(b1-3)Gal(b1-3)GalNAc
# In short: as §1
# [28] = target: Gal(b1-4)GlcNAc(b1-3)Gal(b1-3)GlcNAc
# In short: as §1
# [29] = target: Gal(b1-4)GlcNAc(b1-3)Gal(b1-4)Glc
# In short: as §1
# [30] = target: Gal(b1-4)GlcNAc(b1-3)Gal(b1-4)GlcNAc
# In short: as §1
# [31] = target: Gal(b1-4)GlcNAc(b1-3)Gal(b1-4)GlcNAc(b1-2)Man(a1-3)[Gal(b1-4)GlcNAc(b1-3)Gal(b1-4)GlcNAc(b1-2)Man(a1-6)]Man(b1-4)GlcNAc(b1-4)GlcNAc
# In short: as §1
# [32] = target: Gal(b1-4)GlcNAc(b1-3)Gal(b1-4)GlcNAc(b1-2)Man(a1-3)[Gal(b1-4)GlcNAc(b1-3)Gal(b1-4)GlcNAc(b1-2)Man(a1-6)]Man(b1-4)GlcNAc(b1-4)[Fuc(a1-6)]GlcNAc
# In short: as §1
# [33] = target: Gal(b1-4)GlcNAc(b1-3)Gal(b1-4)GlcNAc(b1-2)[Gal(b1-4)GlcNAc(b1-3)Gal(b1-4)GlcNAc(b1-6)]Man(a1-6)[Gal(b1-4)GlcNAc(b1-3)Gal(b1-4)GlcNAc(b1-2)Man(a1-3)]Man(b1-4)GlcNAc(b1-4)GlcNAc
# In short: as §1
binder,measurement,setting,value
B1,glycan array binding signal (z-score),[1],0.807
same,glycan array binding signal (z-score),[2],0.024
same,glycan array binding signal (z-score),[3],-1.6
same,glycan array binding signal (z-score),[4],-0.54
same,glycan array binding signal (z-score),Gal(b1-4)Gal,1.01
same,glycan array binding signal (z-score),[5],-0.936
same,glycan array binding signal (z-score),[6],-0.864
same,glycan array binding signal (z-score),Gal(b1-4)Glc,0.222
same,glycan array binding signal (z-score),Gal(b1-4)Glc6S,-0.278
same,glycan array binding signal (z-score),Gal(b1-4)GlcNAc,-1
same,glycan array binding signal (z-score),[7],-0.437
same,glycan array binding signal (z-score),Gal(b1-4)GlcNAc(b1-2)Man,0.19
same,glycan array binding signal (z-score),[8],-0.393
same,glycan array binding signal (z-score),[9],-0.307
same,glycan array binding signal (z-score),[10],-0.734
same,glycan array binding signal (z-score),[11],-1.33
same,glycan array binding signal (z-score),[12],-1.32
same,glycan array binding signal (z-score),[13],0.192
same,glycan array binding signal (z-score),[14],-0.014
same,glycan array binding signal (z-score),[15],-0.538
same,glycan array binding signal (z-score),[16],0.334
same,glycan array binding signal (z-score),[17],-0.172
same,glycan array binding signal (z-score),[18],-0.888
same,glycan array binding signal (z-score),[19],-0.263
same,glycan array binding signal (z-score),[20],-0.164
same,glycan array binding signal (z-score),[21],-0.177
same,glycan array binding signal (z-score),[22],0.065
same,glycan array binding signal (z-score),[23],0.903
same,glycan array binding signal (z-score),[24],-0.532
same,glycan array binding signal (z-score),[25],3.4
same,glycan array binding signal (z-score),[26],-0.6
same,glycan array binding signal (z-score),[27],-0.786
same,glycan array binding signal (z-score),[28],-0.58
same,glycan array binding signal (z-score),[29],-1.14
same,glycan array binding signal (z-score),[30],0.308
same,glycan array binding signal (z-score),[31],1.69
same,glycan array binding signal (z-score),[32],2.08
same,glycan array binding signal (z-score),[33],0.498

# 3 neighbouring records already listed, for reference:
binder,measurement,setting,value
B1,glycan array binding signal (z-score),Gal(b1-4)Gal,1.01
same,glycan array binding signal (z-score),[5],-0.936
same,glycan array binding signal (z-score),[6],-0.864
